Publication PMC7819943, “Rice protein-binding microarrays: a tool to detect cis-acting elements near promoter regions in rice”
The list shows a part of the results.

Sequences of proteins named here, by UniProt entry; tags and fusion partners are left off.
UniProt Q0JBA9, entry or part of it: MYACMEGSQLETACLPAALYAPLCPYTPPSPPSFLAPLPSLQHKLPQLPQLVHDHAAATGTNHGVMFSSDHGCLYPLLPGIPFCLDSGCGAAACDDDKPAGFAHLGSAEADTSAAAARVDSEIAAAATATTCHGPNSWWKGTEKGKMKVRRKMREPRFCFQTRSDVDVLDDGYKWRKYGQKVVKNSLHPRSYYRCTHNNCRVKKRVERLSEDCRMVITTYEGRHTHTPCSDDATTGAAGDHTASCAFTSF

The sequences below were run against OsWRKY34 (Oryza sativa, UniProt Q0JBA9 1-250) (assay: protein-binding microarray (RPBM); PBS, 2% BSA, 51.3 ng/ul salmon testes DNA, 50 uM zinc acetate, 200 nM TF, 25 C, 1 h; high values mean tight binding). Conditions: protein: recombinant; tags: N-terminal polyhistidine and DsRed monomer fusion (pET32a); label: CyDye5-dUTP incorporated in the synthesized complementary strand; 3' TTTTT single-stranded linker to array surface; dsDNA, one strand shown.
How it was run: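 Transcription factors were made in E. coli BL21-CodonPlus as N-terminal fusions to a polyhistidine tag and DsRed, then purified on Ni–NTA. After primer extension with Cy5-dUTP and blocking with 2% BSA, a custom Agilent array was exposed for 1 h at 25 °C to 200 nM protein in PBS, 2% BSA, salmon testes DNA and 50 µM zinc acetate. Washed arrays were scanned on an Axon 4000B, and the binding signal is per-feature fluorescence intensity in arbitrary units.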

Sequence | binding signal
ATAATCATACGCTACCCCATATCGCGGTGCAGTAATCACACGGAGTCACCTAGTGCAG | 8520 fluorescence intensity (a.u.)
AAGCTTCAACCTTCCCATGCTGCAAACAGTTAATCTCAACCGGAGTCACCTAGTGCAG | 8400 fluorescence intensity (a.u.)
CCGAACAATACCCGCCCGTTTCCTTGCTCGCGAATCCACTCGGAGTCACCTAGTGCAG | 10100 fluorescence intensity (a.u.)
AAGAAATCATCATCATCTCACGCATTTCTTGCTCGAATTCCGGAGTCACCTAGTGCAG | 8890 fluorescence intensity (a.u.)
CTGTGGAGTGTGTGCTAGTATTGTCCGGCCGGCTTCGTGCCGGAGTCACCTAGTGCAG | 9800 fluorescence intensity (a.u.)
ACAGGGTTCAGAGATCATATAATAACTTGTTTTCCATGTCCGGAGTCACCTAGTGCAG | 8990 fluorescence intensity (a.u.)
TTTGGTTGTCTCTGTGGTGTTTTGTTTGGTAAAATTTTTGCGGAGTCACCTAGTGCAG | 8290 fluorescence intensity (a.u.)
GGTGTTGCCTGCGCGCTAGCCGTCGCATTGTTCATCGGGTCGGAGTCACCTAGTGCAG | 8570 fluorescence intensity (a.u.)
ACTCATGGATGCAGGTCCACCTACATACGTACTACCACAACGGAGTCACCTAGTGCAG | 8570 fluorescence intensity (a.u.)
AATCTTTCGCTGCGTTCTTGCGCGCGTGTGTGAGCAGGGGCGGAGTCACCTAGTGCAG | 8210 fluorescence intensity (a.u.)
ATCATATCTCTTATAATTGGTTTTTCTCCTATATATAGTACGGAGTCACCTAGTGCAG | 9790 fluorescence intensity (a.u.)
ATAAAACGAATGGTCAAACGTTAGTCGAAAAGTCAACGGTCGGAGTCACCTAGTGCAG | 14000 fluorescence intensity (a.u.)
AGCTCTGTTTCTAGCATGTTGGTTTTGCTTCTTGCATTCACGGAGTCACCTAGTGCAG | 12600 fluorescence intensity (a.u.)
ACTTTTTAATGCTTACTTCATTCATTTGTACTCTCAAATACGGAGTCACCTAGTGCAG | 9390 fluorescence intensity (a.u.)
ATTGGTCGTCTTGCTGAGCTCTCGTACTTGGATCTCTCTACGGAGTCACCTAGTGCAG | 11100 fluorescence intensity (a.u.)
TGCGATCAGCTAGCAATTCACTGGCCATCATCGTCGATCACGGAGTCACCTAGTGCAG | 8240 fluorescence intensity (a.u.)
ACACCACGGAGGAGGCGGAGGAGGCAGCGTGGGGATGGGGCGGAGTCACCTAGTGCAG | 9730 fluorescence intensity (a.u.)
TGCGTGGTTTGCAAGGGTCTATATTTTGTTGCACCCTTTTCGGAGTCACCTAGTGCAG | 10500 fluorescence intensity (a.u.)
TAACCTTTTTGTGAACTTTCTTTTATTTTTCCCATAGCATCGGAGTCACCTAGTGCAG | 10700 fluorescence intensity (a.u.)
CGCTTTGGTTTCTCTCTCTCTTTGCAGCCGCCGCCGCCGCCGGAGTCACCTAGTGCAG | 10800 fluorescence intensity (a.u.)
TCTCCGTTTTCGATCCGACGTCCAACATCCACTTTCTCAACGGAGTCACCTAGTGCAG | 11900 fluorescence intensity (a.u.)

Sequence | binding signal
AGTATCACCTTTTTTTTAATATCTGCGTGTTTTTTCACATCGGAGTCACCTAGTGCAG | 9810 fluorescence intensity (a.u.)
CCTCGCCTCGCCACGCCACGCCACGCCGCCGAAATTTCATCGGAGTCACCTAGTGCAG | 9110 fluorescence intensity (a.u.)
ATACTCTACAAATATCCTATTTGGTTACAGCCCATTGACGCGGAGTCACCTAGTGCAG | 8400 fluorescence intensity (a.u.)
ATTCCATGCATTTGACCTAGTTAGTTCTACACCTTACATCCGGAGTCACCTAGTGCAG | 9220 fluorescence intensity (a.u.)
ATCACCGTCACTTTTACTCTGTTAGATACCGTTAATTTTGCGGAGTCACCTAGTGCAG | 8920 fluorescence intensity (a.u.)
TGACTTTGACTTTGACTTCCATGCTGCGCTAAGCACTTGGCGGAGTCACCTAGTGCAG | 9800 fluorescence intensity (a.u.)
TTTCATCGTTTAGTGTCTTACTCCCTTTCCGATGGTCAACCGGAGTCACCTAGTGCAG | 9340 fluorescence intensity (a.u.)
AGTGGCCCTGTCATTTTTCTGTACTTGTTTCTTGTAGAACCGGAGTCACCTAGTGCAG | 9080 fluorescence intensity (a.u.)
ATATACCGATCCAATCCAGCCTTATGTTTGTACTGTGTTTCGGAGTCACCTAGTGCAG | 10500 fluorescence intensity (a.u.)
TTGCTCTCTCTATTTTTTTTCTGGTCCAAGAAGCATTGTCCGGAGTCACCTAGTGCAG | 9890 fluorescence intensity (a.u.)
CCTTGATCTGGTCTTCTTTTCTGTGATTTCCTTTTACTTTCGGAGTCACCTAGTGCAG | 8260 fluorescence intensity (a.u.)
CCAGTATTGATCTCCACAATCTGCATGCTAATCAATCATCCGGAGTCACCTAGTGCAG | 9830 fluorescence intensity (a.u.)
AAGTTTGACCTGAGTCAAAGCAGTGTGTACTTTTTTGGGGCGGAGTCACCTAGTGCAG | 9410 fluorescence intensity (a.u.)
CACACACCCCGTAAGTCCCCATCCGTCGACCAATCCCATCCGGAGTCACCTAGTGCAG | 8260 fluorescence intensity (a.u.)
CGGGGCTTATCCCTTCCACCGCCGCTCTCCTCTTCGTCTCCGGAGTCACCTAGTGCAG | 8160 fluorescence intensity (a.u.)
AGTCTGAGCCACCTTTCATTACCCATCCAAGATTCGGTTTCGGAGTCACCTAGTGCAG | 8900 fluorescence intensity (a.u.)
TTCACGGCGACCTCCGCTTTAGCCTGCCCAATCCCAGTTCCGGAGTCACCTAGTGCAG | 9160 fluorescence intensity (a.u.)
ACTCCCCTGCGCACCCATCGACGCATTTGCTCTCCGCTCTCGGAGTCACCTAGTGCAG | 9370 fluorescence intensity (a.u.)
GTGTCATTTTCAATGCTGCTACTGCTAGTACTACTCCTAGCGGAGTCACCTAGTGCAG | 9800 fluorescence intensity (a.u.)
CAAAGACGACGACGACTCATCCGCTTCTTCTTCTTGTTTCCGGAGTCACCTAGTGCAG | 12000 fluorescence intensity (a.u.)
TGGTCAAATTAGAGTAGTTTGACTTTGACCAAAGTCCAAACGGAGTCACCTAGTGCAG | 12300 fluorescence intensity (a.u.)

A few values from the list.
In binding signal, AAGTTTGACCTGAGTCAAAGCAGTGTGTACTTTTTTGGGGCGGAGTCACCTAGTGCAG is listed with 9410 fluorescence intensity (a.u.)
In binding signal, TTCACGGCGACCTCCGCTTTAGCCTGCCCAATCCCAGTTCCGGAGTCACCTAGTGCAG is listed with 9160 fluorescence intensity (a.u.)
